# In the supplement of paper PMC12067093, “Discovery and optimisation of a covalent ligand for TRIM25 and its application to targeted protein ubiquitination” (Chemical Science, 2025):
# The list shows a part of the results.
# Compound: Cc1cc(ccc1-c1ccccc1)C(=O)N1CCCN(CC1)C(=O)CCl [compound 10]
# Test: probe-labelled cysteine peptide fold change vs DMSO (competition) (log2 fold change); higher = less target engagement (more negative = stronger competition)
# Conditions: 50 µM; THP-1; incubation time: 4 h
# 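Note: competitive profiling in live THP-1 cells: cysteine peptides tagged with an iodoacetamide desthiobiotin (IA-DTB) probe, intensity after compound treatment relative to DMSO-treated cells.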
row,Target,probe-labelled cysteine peptide fold change
1,XPNPEP3_Q9NQH7_503_EMNDIEQICSQAS (UniProt Q9NQH7),0.135
2,XPNPEP1_Q9NQW7_48_NSEYVTEPIQAYIIPSGDAHQSEYIAPCDCRR (UniProt Q9NQW7),0.333
3,WDR77_Q9BQA1_53_CWAGSLWLFK (UniProt Q9BQA1),0.00228
4,WIPI2_Q9Y4P8_334_NICSLATIQK (UniProt Q9Y4P8),-0.275
5,WDFY4_Q6ZS81_1665_FRDGLCAGSWVER (UniProt Q6ZS81),-0.24
6,WDR82_Q6UXN9_287_HTGPITCLQFNPK (UniProt Q6UXN9),-0.0934
7,WBP4_O75554_13_KFCDYCK (UniProt O75554),-0.466
8,WASHC5_Q12768_369_DCNVAIR (UniProt Q12768),-0.01
9,XIAP_P98170_227_HFPNCFFVLGR (UniProt P98170),-0.0172
10,XPO1_O14980_1070_QMSVPGIFNPHEIPEEMCD (UniProt O14980),0.309
11,WSB1_Q9Y6I7_66_LVPWSQCLQNFLLHGTK (UniProt Q9Y6I7),0.148
12,WNK1_Q9H4A3_1135_VVECQLETHNRK (UniProt Q9H4A3),0.14
13,WDR6_Q9NNW5_830_LACHVMHLSSHR (UniProt Q9NNW5),0.0864
14,WDR1_O75083_438_CFSIDNPGYEPEVVAVHPGGDTVAIGGVDGNVR (UniProt O75083),-0.196
15,WDR44_Q5JSH3_701_LITAANFCQNGK (UniProt Q5JSH3),0.165
16,XPNPEP1_Q9NQW7_309_CCMPYTPICIAK (UniProt Q9NQW7),-0.216
17,WDR74_Q6RFH5_201_LVTCTGYHQVR (UniProt Q6RFH5),-0.115
18,XAB2_Q9HCS7_587_DLFEQALDGCPPK (UniProt Q9HCS7),0.156
19,WDR6_Q9NNW5_254_VQNIGHCFGHSAR (UniProt Q9NNW5),-0.072
20,WDR26_Q9H7D7_153_LIGQHLNGLGLNQTVDLLMQESGCR (UniProt Q9H7D7),-0.032

row,Target,probe-labelled cysteine peptide fold change
1,WHAMM_Q8TF30_435_EKQDEVVYYDPCENPEELK (UniProt Q8TF30),-0.0123
2,WT1_P19544_385_HTGVKPFQCK (UniProt P19544),-0.211
3,WDR1_O75083_225_VCALGGSK (UniProt O75083),-0.12
4,WDHD1_O75717_598_GTGFDGDQCLGVQLLELGK (UniProt O75717),0.0617
5,WTAP_Q15007_90_EQEMQECTTQIQYLK (UniProt Q15007),-0.102
6,WDR6_Q9NNW5_1096_LGHGEPTFMNSTVFHVPDVADMDCWPVSPEFGHR (UniProt Q9NNW5),0.345
7,WDR74_Q6RFH5_83_HCPGGEGMFR (UniProt Q6RFH5),0.0642
8,WDFY4_Q6ZS81_2226_TEDFVSCIENYR (UniProt Q6ZS81),-0.159
9,WDR62_O43379_826_CLLTNGK (UniProt O43379),-0.775
10,WDR81_Q562E7_130_LSYPLGGGLPFEDGSCGPETLTR (UniProt Q562E7),-0.117
11,WDR6_Q9NNW5_577_QGVTSVTCHGGYVYTTGR (UniProt Q9NNW5),-0.0538
12,WBP4_O75554_18_CWIADNRPSVEFHER (UniProt O75554),-0.155
13,WDR81_Q562E7_76_RLPLGPCPR (UniProt Q562E7),0.132
14,WDR70_Q9NW82_338_KVIPTTCTYSR (UniProt Q9NW82),-0.0979
15,XPNPEP1_Q9NQW7_46_NSEYVTEPIQAYIIPSGDAHQSEYIAPCDCRR (UniProt Q9NQW7),0.404
16,WDR7_Q9Y4E6_469_VTCLLYPHQVSAR (UniProt Q9Y4E6),-0.0295
17,WDR26_Q9H7D7_493_VQCLWCLSDGK (UniProt Q9H7D7),-0.0773
18,XAB2_Q9HCS7_66_LLPCSYK (UniProt Q9HCS7),0.0193
19,WDR1_O75083_170_LATGSDDNCAAFFEGPPFK (UniProt O75083),0.235

# Exported as tab-separated lines: entries from further up
row	Target	probe-labelled cysteine peptide fold change
17	WDR74_Q6RFH5_201_LVTCTGYHQVR (UniProt Q6RFH5)	-0.115
4	WDHD1_O75717_598_GTGFDGDQCLGVQLLELGK (UniProt O75717)	0.0617
19	WDR1_O75083_170_LATGSDDNCAAFFEGPPFK (UniProt O75083)	0.235
